Results on one substance are retold here after article PMC7666215.

Protein sequences, listed by entry. Tags and fused reporters are not part of them.
UniProt Q86WJ1: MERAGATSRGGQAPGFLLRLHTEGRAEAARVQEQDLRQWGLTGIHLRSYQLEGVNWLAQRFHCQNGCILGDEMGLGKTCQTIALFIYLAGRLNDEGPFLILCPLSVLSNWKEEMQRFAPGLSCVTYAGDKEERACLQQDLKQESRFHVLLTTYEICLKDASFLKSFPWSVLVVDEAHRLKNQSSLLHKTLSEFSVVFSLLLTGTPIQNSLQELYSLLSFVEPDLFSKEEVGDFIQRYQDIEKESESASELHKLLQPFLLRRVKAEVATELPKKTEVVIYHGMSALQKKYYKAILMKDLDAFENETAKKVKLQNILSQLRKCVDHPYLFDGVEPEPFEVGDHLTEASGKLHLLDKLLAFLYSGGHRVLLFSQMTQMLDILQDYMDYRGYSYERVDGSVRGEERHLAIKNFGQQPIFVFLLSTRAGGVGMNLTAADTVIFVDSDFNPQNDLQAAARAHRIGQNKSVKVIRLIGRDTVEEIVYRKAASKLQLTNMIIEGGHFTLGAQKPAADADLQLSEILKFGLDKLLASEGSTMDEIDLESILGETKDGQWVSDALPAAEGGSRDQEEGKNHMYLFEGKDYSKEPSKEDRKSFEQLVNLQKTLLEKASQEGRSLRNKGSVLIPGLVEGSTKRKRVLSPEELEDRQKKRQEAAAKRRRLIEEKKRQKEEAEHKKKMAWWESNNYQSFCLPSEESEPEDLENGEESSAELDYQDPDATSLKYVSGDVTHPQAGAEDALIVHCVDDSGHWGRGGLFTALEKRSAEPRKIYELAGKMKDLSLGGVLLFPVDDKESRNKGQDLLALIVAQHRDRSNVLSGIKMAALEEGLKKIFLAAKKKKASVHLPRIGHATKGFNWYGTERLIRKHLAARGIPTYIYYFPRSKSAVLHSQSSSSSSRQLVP
UniProt P09874: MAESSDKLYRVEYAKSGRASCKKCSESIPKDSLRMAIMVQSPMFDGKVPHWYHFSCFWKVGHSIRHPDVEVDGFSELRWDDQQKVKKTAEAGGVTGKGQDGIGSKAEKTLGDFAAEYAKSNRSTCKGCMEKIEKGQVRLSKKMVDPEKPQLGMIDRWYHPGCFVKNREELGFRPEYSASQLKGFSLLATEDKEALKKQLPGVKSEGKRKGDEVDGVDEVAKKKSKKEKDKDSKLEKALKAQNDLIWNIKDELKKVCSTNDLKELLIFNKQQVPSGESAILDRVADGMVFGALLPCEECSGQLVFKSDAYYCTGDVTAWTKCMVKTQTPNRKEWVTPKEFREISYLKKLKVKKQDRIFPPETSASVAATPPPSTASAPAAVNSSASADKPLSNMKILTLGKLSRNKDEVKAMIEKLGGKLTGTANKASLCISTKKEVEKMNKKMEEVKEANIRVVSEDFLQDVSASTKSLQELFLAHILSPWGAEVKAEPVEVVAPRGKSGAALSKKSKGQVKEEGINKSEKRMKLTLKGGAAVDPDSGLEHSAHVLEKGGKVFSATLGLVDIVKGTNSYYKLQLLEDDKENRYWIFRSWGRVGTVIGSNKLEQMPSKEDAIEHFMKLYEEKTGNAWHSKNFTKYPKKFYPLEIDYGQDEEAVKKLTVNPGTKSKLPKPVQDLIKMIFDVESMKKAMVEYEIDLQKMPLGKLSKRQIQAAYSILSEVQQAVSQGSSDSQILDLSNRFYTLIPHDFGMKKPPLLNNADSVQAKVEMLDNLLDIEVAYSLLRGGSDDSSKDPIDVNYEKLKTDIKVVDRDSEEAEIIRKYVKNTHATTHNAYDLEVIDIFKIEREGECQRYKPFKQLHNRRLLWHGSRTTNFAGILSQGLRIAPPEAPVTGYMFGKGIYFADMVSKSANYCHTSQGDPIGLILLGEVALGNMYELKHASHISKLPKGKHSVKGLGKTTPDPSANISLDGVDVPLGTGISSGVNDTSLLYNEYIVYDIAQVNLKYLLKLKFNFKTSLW

Results are given in words; binding and its absence hold for the method and conditions named. Some binding calls cover weakened binding; strength is not graded here.

The experiment deals with GFP–ALC1 (UniProt Q86WJ1). The experiment can be described thus: fluorescence three-hybrid assay; GFP-tagged protein tethered to a genomic LacO array by a LacI-GFP trap in U2OS-2B2 cells expressing mCherry-PARP1; Hoechst sensitisation, 405 nm micro-irradiation; mCherry signal at the array pre and 60 s post damage.

Consider “PARylated mCherry-PARP1 (from UniProt P09874 1-1014)”, for which the binding entry is “binds”.
